From article PMC12434046 come the findings set out here.

Protein sequences, listed by entry. Tags and fused reporters are not part of them. Residues count along the entry.
UniProt P24864: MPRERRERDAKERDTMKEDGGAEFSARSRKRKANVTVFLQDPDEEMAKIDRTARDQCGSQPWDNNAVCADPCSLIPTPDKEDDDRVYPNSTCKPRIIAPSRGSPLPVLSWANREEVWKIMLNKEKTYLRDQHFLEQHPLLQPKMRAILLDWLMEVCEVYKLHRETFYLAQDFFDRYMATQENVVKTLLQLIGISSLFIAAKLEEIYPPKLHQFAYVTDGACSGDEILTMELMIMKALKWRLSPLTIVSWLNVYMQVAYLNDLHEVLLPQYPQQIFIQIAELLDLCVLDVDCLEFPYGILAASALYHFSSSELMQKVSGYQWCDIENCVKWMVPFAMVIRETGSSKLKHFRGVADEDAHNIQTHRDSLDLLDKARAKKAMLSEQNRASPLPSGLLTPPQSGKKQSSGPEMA
UniProt P08246, residues 30-267: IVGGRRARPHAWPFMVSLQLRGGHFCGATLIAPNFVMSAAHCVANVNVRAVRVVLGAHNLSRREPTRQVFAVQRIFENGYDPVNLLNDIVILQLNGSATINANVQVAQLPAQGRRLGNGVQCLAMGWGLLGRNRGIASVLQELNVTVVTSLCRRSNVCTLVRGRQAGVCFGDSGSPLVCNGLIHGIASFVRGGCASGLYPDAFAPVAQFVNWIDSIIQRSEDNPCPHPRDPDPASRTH

This test has as its target cyclin E1 (human (endogenous in U2OS and 143B)) (UniProt P24864). Nature of the test: co-IP; whole-cell lysate of U2OS and 143B cells incubated with cyclin E1 antibody (1:50) overnight at 4°C, protein A/G agarose beads 1.5 h at 4°C; Western blot for ELA2, calpain 1 and calpain 2. Background: A western blot detects proteins with antibodies after separation by electrophoresis.

No constants are given. Whether binding was seen depends on the method and setting. In cells and extracts the contact can be indirect. Some binding calls cover weakened binding; strength is not graded here.

In the case of “neutrophil elastase (from UniProt P08246 30-267) (enzyme)”, the binding result is “binds”.
